From paper PMC9741252, “Novel Nanomolar Allosteric Modulators of AMPA Receptor of Bis(pyrimidine) Series: Synthesis, Biotesting and SAR Analysis” (Molecules, 2022) come the findings set out here.

The subject of the data set is T1, AMPA receptor (AMPAR).
T1 construct: gene Gria1; native AMPA receptors in freshly isolated single cerebellar Purkinje neurons of 12-15-day-old rats; subunit composition not determined
Kind of data set: whole-cell patch clamp, kainate-induced currents, Purkinje neurons. In kind it is cell-based, Rattus norvegicus. Particulars: kainate as agonist (10^-6-10^-4 M).

The mark [1] stands for this setting: positive allosteric modulator, n = 4 neurons.
Setting [2] is: positive allosteric modulator, n = 3 neurons.
[3] abbreviates: positive allosteric modulator, n = 5 neurons.

Consider `Cc1nc(Oc2ccc(Oc3nc(C)nc4c3CCC4)cc2)cc(C(C)(C)C)n1` [1m, 4-(4-((6-(tert-Butyl)-2-methylpyrimidin-4-yl)oxy)phenoxy)-2-methyl-6,7-dihydro-5H-cyclopenta[d]pyrimidine], for which the “Currents (%) for Various Concentrations of Compounds (M, Control = 100%) / 10^-9” value (shortened to “Currents (%) … (M, Control = 100%) / 10^-9”) under setting [1] amounted to 119 ± 9%.

For the compound `Cc1nc2c(c(Oc3ccc(Oc4nc(C)nc5c4CCC5)cc3)n1)CCC2` [1g, 1,4-Bis((2-methyl-6,7-dihydro-5H-cyclopenta[d]pyrimidin-4-yl)oxy)benzene], the “Currents (%) … (M, Control = 100%) / 10^-9” value under setting [2] was determined as 118 ± 4%.

Take `Cc1nc2c(c(Oc3ccc(Oc4nc(C)nc5c4CCC5)cc3)n1)CCCC2` [1j, 2-Methyl-4-(4-((2-methyl-6,7-dihydro-5H-cyclopenta[d]pyrimidin-4-yl)oxy)phenoxy)-5,6,7,8-tetrahydroquinazoline]: under “negative allosteric modulator, n = 6 neurons”, the “Currents (%) … (M, Control = 100%) / 10^-9” value is 71 ± 4%.

On to `Cc1nc2c(c(Oc3ccc(Oc4nc(C)nc5c4CCCCC5)cc3)n1)CCCCC2` [1h, 1,4-Bis((2-methyl-6,7,8,9-tetrahydro-5H-cyclohepta[d]pyrimidin-4-yl)oxy)benzene], for which, under setting [3], the “Currents (%) … (M, Control = 100%) / 10^-9” value worked out at 153 ± 9%.

In the case of `Cc1nc(Oc2ccc(Oc3nc(C)nc4c3CCCC4)cc2)cc(C(C)(C)C)n1` [1l, 4-(4-((6-(tert-Butyl)-2-methylpyrimidin-4-yl)oxy)phenoxy)-2-methyl-5,6,7,8-tetrahydroquinazoline], the “Currents (%) … (M, Control = 100%) / 10^-9” value under setting [1] came to 129 ± 6%.

As to `Cc1nc(Oc2ccc(Oc3cc(C(C)(C)C)nc(C)n3)cc2)cc(C(C)(C)C)n1` [1i, 1,4-Bis((6-(tert-butyl)-2-methylpyrimidin-4-yl)oxy)benzene], the “Currents (%) … (M, Control = 100%) / 10^-9” value under setting [3] is 151 ± 12%.

Regarding `Cc1nc2c(c(Oc3ccc(Oc4nc(C)nc5c4CCCC5)cc3)n1)CCCCC2` [1k, 2-Methyl-4-(4-((2-methyl-5,6,7,8-tetrahydroquinazolin-4-yl)oxy)phenoxy)-6,7,8,9-tetrahydro-5H-cyclohepta[d]pyrimidine], the “Currents (%) … (M, Control = 100%) / 10^-9” value under setting [3] was 177 ± 6%.

As for `Cc1nc(Oc2ccc(Oc3nc(C)[n+]([O-])c4c3CCCC4)cc2)c2c([n+]1[O-])CCCC2` [1p, 4,4′-[1,4-Phenylenebis(oxy)]bis(2-methyl-5,6,7,8-tetrahydroquinazoline) 1,1′-Dioxide], under setting [1], the “Currents (%) … (M, Control = 100%) / 10^-9” value is on record as 133 ± 11%.

`Cc1nc(Oc2ccc(Oc3nc(C)nc4c3CCCCC4)cc2)cc(C(C)(C)C)n1` [1n, 4-(4-((6-(tert-Butyl)-2-methylpyrimidin-4-yl)oxy)phenoxy)-2-methyl-6,7,8,9-tetrahydro-5H-cyclohepta[d]pyrimidine]: the “Currents (%) … (M, Control = 100%) / 10^-9” value under setting [2] came out at 138 ± 6%.

As to `c1nc2c(c(Oc3ccc(Oc4ncnc5c4CCCC5)cc3)n1)CCCC2` [1f, 1,4-Bis((5,6,7,8-tetrahydroquinazolin-4-yl)oxy)benzene], the “Currents (%) … (M, Control = 100%) / 10^-9” value under setting [1] was 166 ± 12%.

In the case of `Cc1nc2c(c(Oc3ccc(Oc4nc(C)[n+]([O-])c5c4CCCC5)cc3)n1)CCCC2` [1o, 2-Methyl-4-(4-((2-methyl-5,6,7,8-tetrahydroquinazolin-4-yl)oxy)phenoxy)-5,6,7,8-tetrahydroquinazoline 1-Oxide], the “Currents (%) … (M, Control = 100%) / 10^-9” value under setting [3] is listed as 161 ± 9%.
